Results: PubChem BioAssay AID2549 (National Center for Advancing Translational Sciences (NCATS), 2010)
Hit rate of the full screen: of about 240,000 compounds, about 1,300 (0.54%) were called active. This list was built around the results that the source calls inconclusive (neither active nor inactive); the mix of calls is not that of the screen. Calls come from the whole dose curve; as a rule, active = well fitted inhibition curve with a large enough effect; inconclusive = small, poorly fitted or top-dose-only effect; inactive = flat fitted curve, though single readings scatter. Potencies of inconclusive entries are doubtful fits and often do not repeat.

By UniProt entry, the sequences of proteins in these tests, tags left out. Where a name states a change or a piece, a line headed by the entry shows the natural chain unless it says otherwise.
UniProt P46063: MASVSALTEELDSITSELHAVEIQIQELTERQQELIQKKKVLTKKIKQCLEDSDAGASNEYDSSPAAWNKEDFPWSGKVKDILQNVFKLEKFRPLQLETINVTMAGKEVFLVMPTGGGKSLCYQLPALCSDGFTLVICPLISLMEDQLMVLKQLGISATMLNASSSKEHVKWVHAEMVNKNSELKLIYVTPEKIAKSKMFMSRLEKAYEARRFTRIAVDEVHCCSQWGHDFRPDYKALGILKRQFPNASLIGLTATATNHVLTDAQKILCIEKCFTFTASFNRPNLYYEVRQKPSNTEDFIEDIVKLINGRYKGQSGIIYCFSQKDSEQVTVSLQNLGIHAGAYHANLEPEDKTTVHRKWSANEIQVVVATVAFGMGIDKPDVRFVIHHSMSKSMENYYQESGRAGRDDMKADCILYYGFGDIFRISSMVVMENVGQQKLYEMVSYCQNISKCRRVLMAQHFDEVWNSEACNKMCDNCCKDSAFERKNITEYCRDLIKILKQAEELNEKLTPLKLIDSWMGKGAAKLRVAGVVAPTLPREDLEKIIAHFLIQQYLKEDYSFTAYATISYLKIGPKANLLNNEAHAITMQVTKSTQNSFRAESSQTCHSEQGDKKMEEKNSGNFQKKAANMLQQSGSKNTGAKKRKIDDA

Molecular target: ATP-dependent DNA helicase Q1 (Homo sapiens) (UniProt P46063)
Test: qHTS Assay for Inhibitors of RecQ-Like Dna Helicase 1 (RECQ1); note: nearly all actives have a fitted effect of over 30% in size;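 for activity, negative = inhibition: plate controls were vehicle for no effect and no enzyme for full effect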
Details: RECQ1 DNA unwinding, red fluorescence kinetic read; activity, negative = inhibition: at 57.3 µM (top of the series); series mostly up to 57.3 µM
Procedure, shortened: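 50 nM RECQ1T1 preincubated 15 min with compound in Tris pH 8.0 buffer with MgCl2, DTT, Tween-20 and 2.5 ug/ml poly(dI-dC); started with 200 nM TAMRA/BHQ-2 forked duplex and 2 mM ATP. Unwinding read as fluorescence (525/598 nm), two reads 2 h apart.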
Potency is the fitted concentration of half-maximal effect.

Question: With `O=C(CC1N=C2c3ccccc3N=C(SCc3ccc(Cl)cc3)N2C1=O)NCc1ccco1` (stereo not drawn) as the compound, how does the Potency read?
Answer: inconclusive: 25.1 µM [inhibitor, single point]

Question: With `C=C1c2c(Cl)ccc(O)c2C(O)=C2C(=O)[C@@]3(O)C(O)=C(C(N)=O)C(=O)[C@@H](N(C)C)[C@@H]3[C@@H](O)[C@H]12` as the compound, how does the Potency read?
Answer: active: 3.55 µM

Question: Which Potency does the source give for `CCN(CC)C(=S)SSC(=S)N(CC)CC` here?
Answer: inactive

Question: `CCOC(=O)CCCCC(=O)c1[nH]c(=O)[nH]c1C[n+]1ccc(C)cc1` was tested. Which “activity, negative = inhibition” value did it give?
Answer: inactive: -0.753%

Question: Which Potency does the source give for `O=C(Cc1cccs1)N/N=C/C=C\c1ccco1` here?
Answer: inconclusive: 39.8 µM [inhibitor, single point]

Question: `CC(C)Oc1ccc(C(CC(=O)NCCCN(C)C)c2ccc(F)cc2)cc1` (stereo not drawn) was tested. Which “activity, negative = inhibition” value did it give?
Answer: inactive: -7.07%

Question: `Cc1cccc(-c2n[nH]c(=S)n2/N=C/C=C/c2ccco2)c1` was tested. Which Potency did it give?
Answer: inconclusive: 39.8 µM [inhibitor, single point]

Question: For `COc1cc(OC)c2c(-c3ccccc3)cc(=O)oc2c1C(CCN1CCCC(C)C1)c1ccc(N(C)C)cc1` (stereo not drawn), which Potency is on record?
Answer: inconclusive: 0.158 µM [inhibitor, full curve, poor fit]

Question: How did the Potency turn out when `Nc1nc(=S)c2ncn(C3OC(CO)C(O)C3O)c2[nH]1` (stereo not drawn) was run?
Answer: inconclusive: 28.2 µM [inhibitor, single point]

Question: `CC(C)C[C@H](NC(=O)c1[nH]cnc1C(=O)N[C@@H](C)c1ccccc1)C(=O)OC(C)(C)C` was tested. Which Potency did it give?
Answer: inconclusive: 11.2 µM [inhibitor, partial curve]

Question: With `CC[C@@H](C(=O)[C@@H](C)[C@@H](O)[C@H](C)CCc1ccc(C)c(O)c1C(=O)O)C1O[C@](CC)(C2CC[C@](O)(CC)[C@H](C)O2)C[C@@H]1C` (stereo partly drawn) as the compound, how does the “activity, negative = inhibition” value read?
Answer: inactive: -8.24%

Question: Which Potency does the source give for `N#Cc1c(N2C(=O)Nc3ccccc3N2O)sc2c1CCCCCC2` here?
Answer: inconclusive: 35.5 µM [inhibitor, single point]

Question: How did the Potency turn out when `Cc1cc(C(=O)N/N=C/c2cc(Br)ccc2OC(=O)c2ccccc2)n[nH]1` was run?
Answer: inconclusive: 35.5 µM [inhibitor, partial curve]

Question: `CCn1c(=O)c(C(=O)NNS(=O)(=O)c2ccc(Br)cc2)c(O)c2ccccc21` was tested. Which Potency did it give?
Answer: inconclusive: 35.5 µM [inhibitor, single point]

Question: Which Potency does the source give for `c1csc(CNc2ncnc3ccc(-c4ccc5c(c4)OCO5)cc23)c1` here?
Answer: inconclusive: 39.8 µM [inhibitor, single point]

Question: Which “activity, negative = inhibition” value does the source give for `CCn1c2ccccc2c2cc(C3C(C#N)=C(N)Oc4n[nH]c(COC)c43)ccc21` (stereo not drawn) here?
Answer: inactive: -0.178%

Question: With `N#Cc1c2n(c(=S)n(-c3ccccn3)c1=O)CCCCC2` as the compound, how does the Potency read?
Answer: inconclusive: 3.98 µM [inhibitor, single point]

Question: Which Potency does the source give for `Cc1ccc2c(COC(=O)c3c(C)noc3C)cc(=O)oc2c1` here?
Answer: inconclusive: 1.12 µM [inhibitor, full curve]
